In the assay the target is T1, syndecan-1 (SDC1) of human placenta, carrying placental chondroitin sulfate (human (endogenous in placenta)) (UniProt P18827).
T1 sequence (chain, chondroitin sulfate chains (placental CS)): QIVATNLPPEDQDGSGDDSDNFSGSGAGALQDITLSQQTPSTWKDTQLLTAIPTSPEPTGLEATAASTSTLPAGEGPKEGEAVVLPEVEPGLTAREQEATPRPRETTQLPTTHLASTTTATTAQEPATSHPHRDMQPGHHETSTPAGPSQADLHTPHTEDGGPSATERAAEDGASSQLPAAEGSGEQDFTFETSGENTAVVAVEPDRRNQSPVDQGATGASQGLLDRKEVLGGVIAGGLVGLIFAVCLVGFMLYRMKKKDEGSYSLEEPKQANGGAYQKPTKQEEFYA
Put plainly: parasite adhesion assay; placental proteoglycan extract captured on spots coated with anti-SDC1 antibody (B-A38); 5 x 10^6 infected erythrocytes/ml in PBS with 2% FBS settled 20 minutes at RT; controls: isotype IgG, 400 ug/ml soluble CSA, extract pre-digested with Chondroitinase ABC.

These are yes or no findings as the source states them, for the method shown. Binding calls can cover weak binding; strength is not graded here.

For the substance “VAR2CSA on infected erythrocytes (FCR3 parasites selected on BeWo cells) (Plasmodium falciparum (FCR3))”, the binding entry is “binds”.

The values are drawn from paper PMC4996535.
